{
  "source": "patent EP0398231B1",
  "about": "“Nucleoside analogs” (INSTITUTE OF ORGANIC CHEMISTRY AND BIOCHEMISTRY OF THE …, priority 1989, dated 1990)",
  "key": {"CEM": {"test_system": "CEM", "test": "Cell toxicity, CEM cells", "format": "cell-based", "settings": "Virus HIV, Cell-line CEM; read-out: Cell-tox."}, "MT-4": {"test_system": "MT-4", "test": "Cell toxicity, MT-4 cells", "format": "cell-based", "settings": "Virus HIV, Cell-line MT-4; read-out: Cell-tox."}},
  "note": "At least one read-out could not be matched to a standard name with certainty.",
  "data": [
    {"substance": "9-[2,3-Dideoxy-2,3-didehydro-4-β-phosphonomethoxy-β-D-erythrofuranosyl]adenine ammonium salt [Example 50]", "values": [
      {"measurement": "CC50", "setting": "CEM", "result": "> 100", "unit": "µM"},
      {"measurement": "CC50", "setting": "MT-4", "result": "> 500", "unit": "µM"}
    ]}
  ]
}
